# The whole screen tested about 400,000 compounds, of which about 13,000 (3.2%) were called active. The shares of active, inactive and inconclusive entries below differ from those in the screen. Calls follow the shape of the dose curve; as a rule, active = well fitted cell-killing curve with a large enough effect; inconclusive = small, poorly fitted or top-dose-only effect, or effect the other way; inactive = flat fitted curve, though single readings scatter. Potencies of inconclusive entries are doubtful fits and often do not repeat.
# Experiment: qHTS assay for MDR1-selective chemotherapeutics: Primary screen using the drug-selected MDR subline cells KB-V1; also: nearly all actives have a fitted effect of over 60% in size
# Details: KB-V1 MDR cells viability, CellTiter-Glo, 72 h; series mostly up to 46.1 µM
# Outline: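 Compound-treated KB-V1 multidrug-resistant cells, 72 h, 37 degrees C; viability by CellTiter-Glo. Fitted qHTS curves give the values.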
# Potency is read from the fitted curve at half-maximal effect.
row,Compound,Potency
1,Cc1cc(C)nc(NC(N)=NCCc2ccccc2)n1,inactive
2,Cc1ccc(S(=O)(=O)Oc2cccc([N+](=O)[O-])c2)cc1,inactive
3,CCCCC(=O)Nc1nn(CC(C)C)c2nc3ccccc3cc12,active: 16.4 µM
4,CC(=O)c1c(C)[nH]c(C(=O)OCC(=O)Nc2sc3c(c2C#N)CCC(C)C3)c1C (stereo not drawn),inactive
5,CCC(=O)N(Cc1ccc(C)cc1)Cc1cc2cc3c(cc2[nH]c1=O)OCO3,active: 11.6 µM
6,N#Cc1cnc2c(-c3ccccc3)c(-c3ccccc3)nn2c1N,inactive
7,O=C1C2CCCCC2C(=O)N1c1nccs1 (stereo not drawn),"inconclusive: 29.1 µM [rising, single point]"
8,CC1CCCN(CCOCCOc2ccccc2-c2ccccc2)C1 (stereo not drawn),active: 20.6 µM
9,CCN(CC)c1ccc(NC(=O)CCc2nc3cccnc3n2Cc2cccs2)c(C)c1,inactive
10,Cc1[nH]c2c(C)cccc2c(=O)c1CN1CCCCCC1,"inconclusive: 29.1 µM [rising, single point]"
11,O=C(Cc1c(Cl)cccc1Cl)OCC(=O)N1CCc2ccccc2C1,"inconclusive: 18.4 µM [cytotoxic, single point]"
12,OCCN1CCN(Cc2cc(Br)cc(Br)c2O)CC1,"inconclusive: 13 µM [cytotoxic, partial curve, poor fit]"
13,C=CCc1cccc2cc(C(=O)NCCc3c(C)[nH]c4c(C)cccc34)c(=O)oc12,inactive
14,O=c1c2c(n3cnnc3n1C1CCCCC1)-c1ccccc1CC21CCCCC1,inactive
15,Cc1nn(Cc2c(Cl)cccc2Cl)c(C)c1NC(=O)c1cn(-c2ccccc2)nc1-c1ccccc1,active: 9.2 µM
16,Cc1ccc(C(=O)/C=C/c2c[nH]c3ccccc23)cc1,inactive
17,CN1CCN(C(=O)C2CCN(S(=O)(=O)c3ccccc3[N+](=O)[O-])CC2)CC1,"inconclusive: 29.1 µM [rising, partial curve, poor fit]"
18,COc1ccc(CCNC(=O)c2cc(-c3cc(Cl)ccc3O)n[nH]2)cc1OC,"inconclusive: 13 µM [cytotoxic, single point]"
19,CCOCCn1c(CN(Cc2ccccc2)Cc2ccccc2)nc2c1c(=O)n(C)c(=O)n2C,inactive
20,CNC(=S)N(CCc1c(C)[nH]c2ccc(C)cc12)Cc1cccs1,"inconclusive: 29.1 µM [cytotoxic, single point]"
21,CC(=O)Oc1cccc(N2C(=O)C3C4C=CC(C4=C(C)C)C3C2=O)c1 (stereo not drawn),inactive
22,O=C(COC(=O)c1ccc(S(=O)(=O)N2CCOCC2)cc1)Nc1nc(-c2ccccc2)cs1,"inconclusive: 14.6 µM [rising, partial curve, poor fit]"
23,CCOC(=O)C(CC)n1cnc2sc3c(c2c1=O)CCC3 (stereo not drawn),inactive
24,O=C(Cn1ncc2c(=O)oc3ccccc3c21)N1CCc2ccccc2C1,"inconclusive: 14.6 µM [rising, single point]"

# Arranged by heavy-atom count (high to low): part of the list above
row,Compound,Potency
15,Cc1nn(Cc2c(Cl)cccc2Cl)c(C)c1NC(=O)c1cn(-c2ccccc2)nc1-c1ccccc1,active: 9.2 µM
19,CCOCCn1c(CN(Cc2ccccc2)Cc2ccccc2)nc2c1c(=O)n(C)c(=O)n2C,inactive
22,O=C(COC(=O)c1ccc(S(=O)(=O)N2CCOCC2)cc1)Nc1nc(-c2ccccc2)cs1,"inconclusive: 14.6 µM [rising, partial curve, poor fit]"
9,CCN(CC)c1ccc(NC(=O)CCc2nc3cccnc3n2Cc2cccs2)c(C)c1,inactive
13,C=CCc1cccc2cc(C(=O)NCCc3c(C)[nH]c4c(C)cccc34)c(=O)oc12,inactive
4,CC(=O)c1c(C)[nH]c(C(=O)OCC(=O)Nc2sc3c(c2C#N)CCC(C)C3)c1C (stereo not drawn),inactive
18,COc1ccc(CCNC(=O)c2cc(-c3cc(Cl)ccc3O)n[nH]2)cc1OC,"inconclusive: 13 µM [cytotoxic, single point]"
24,O=C(Cn1ncc2c(=O)oc3ccccc3c21)N1CCc2ccccc2C1,"inconclusive: 14.6 µM [rising, single point]"
8,CC1CCCN(CCOCCOc2ccccc2-c2ccccc2)C1 (stereo not drawn),active: 20.6 µM
20,CNC(=S)N(CCc1c(C)[nH]c2ccc(C)cc12)Cc1cccs1,"inconclusive: 29.1 µM [cytotoxic, single point]"
10,Cc1[nH]c2c(C)cccc2c(=O)c1CN1CCCCCC1,"inconclusive: 29.1 µM [rising, single point]"
2,Cc1ccc(S(=O)(=O)Oc2cccc([N+](=O)[O-])c2)cc1,inactive
12,OCCN1CCN(Cc2cc(Br)cc(Br)c2O)CC1,"inconclusive: 13 µM [cytotoxic, partial curve, poor fit]"
7,O=C1C2CCCCC2C(=O)N1c1nccs1 (stereo not drawn),"inconclusive: 29.1 µM [rising, single point]"

# Continued:

row,Compound,Potency
1,COc1ccc(-c2nnc(NC(=O)c3ccc(F)cc3)o2)cc1,inactive
2,Cc1ccccc1NC(=O)c1ccc2c(O)c(S(=O)(=O)c3ccccc3)c(=O)[nH]c2c1,"inconclusive: 25.9 µM [rising, single point]"
3,Cc1ccccc1OCC(=O)Nc1ccc2nc(SCC(=O)N3CCc4ccccc43)sc2c1,inactive
4,COc1ccc(COC(=O)C2=C(C)NC(=O)NC2c2cccc(Br)c2)cc1 (stereo not drawn),inactive
5,CCOc1cc(/C=C2\SC(N3CCCC(C)C3)=NC2=O)ccc1O (stereo not drawn),"inconclusive: 32.6 µM [cytotoxic, single point]"
6,Fc1ccc(CSc2ncnc3scc(-c4ccccc4)c23)cc1,active: 14.6 µM
7,Nn1c(COc2ccc(Cl)cc2)nc2ccccc2c1=O,"inconclusive: 16.4 µM [cytotoxic, partial curve]"
8,O=C(c1ccc(C23CC4CC(CC(C4)C2)C3)o1)N1CCOCC1,"inconclusive: 25.9 µM [cytotoxic, single point]"
9,COc1ccc(S(=O)(=O)N2CCOCC2)cc1C(=O)NCc1ccccc1CN1CCCC1,"inconclusive: 32.6 µM [cytotoxic, partial curve, poor fit]"
10,Cc1nc(N)nc(N)c1/C=C/C(C)(C)c1ccc(Cl)cc1,"inconclusive: 0.0065 µM [cytotoxic, full curve, poor fit]"
11,Cc1cccc(C)c1NC(=O)C(CCc1ccccc1)N1CCN(C)CC1 (stereo not drawn),"inconclusive: 10.3 µM [cytotoxic, partial curve]"
12,O=C(CN1CCOCC1)Nc1ccc(NC(=O)c2ccccc2F)cc1,inactive
13,COc1cc(S(=O)(=O)N2CCCCC2)ccc1NC(=O)c1ccccc1Cl,"inconclusive: 16.4 µM [cytotoxic, partial curve]"
14,CCOC(=O)CN(C(=O)CSc1nnc(-c2ccc(OC)c(OC)c2)o1)c1ccc(F)cc1,"inconclusive: 0.731 µM [cytotoxic, full curve, poor fit]"
15,c1ccc(-c2nnc3sc(CN4CCC5(CC4)OCCO5)cn23)cc1,active: 20.6 µM
16,C[C@@H]1CN([C@H](C)CO)C(=O)CCCn2nncc2CO[C@H]1CN(C)Cc1ccccc1C(F)(F)F,inactive
17,COCCNC(=O)/C(C#N)=C/c1ccc(O)cc1,inactive
18,CCC1CCCCN1S(=O)(=O)c1ccc(S(=O)(=O)N2CCN(S(=O)(=O)CC)CC2)cc1 (stereo not drawn),"inconclusive: 5.17 µM [cytotoxic, partial curve, poor fit]"
19,Cc1ccc(CNc2ncnc3c2cnn3-c2ccc(Cl)cc2)cc1,inactive
20,COc1ccc(-c2nn(-c3ccccc3)cc2/C=N/NC(=S)NC(C)C)cc1OC,"inconclusive: 7.31 µM [cytotoxic, partial curve]"
21,CCC(C)Sc1oc(-c2ccco2)nc1S(=O)(=O)c1ccc(C)cc1 (stereo not drawn),"inconclusive: 9.2 µM [cytotoxic, partial curve, poor fit]"
22,OCc1cc(C(O)CNCCCCCCOCCCCc2ccccc2)ccc1O (stereo not drawn),inactive
23,CC(C)[C@H](N)c1nnc(SC/C=C/c2ccccc2)o1,"inconclusive: 18.4 µM [cytotoxic, partial curve]"
24,c1cnc2c(Oc3ncnc4sccc34)cccc2c1,"inconclusive: 29.1 µM [rising, single point]"
